The values below come from patent publication US9873709B2 (priority 2013, dated 2018).

Molecules are shown by their SMILES. pIC50: −log10 of the molar value.

This assay deals with JAK1-dependent STAT6 phosphorylation downstream of IL-13 stimulation in TF-1 human erythroleukemia cells. Kind of assay: cells. To be noted: TF-1, read-out: IL-13-pSTAT6 IC50.

Turning to `CN1CCC(N(C)C(=O)c2ccc(Nc3nc4c(C5=CCN(C(=O)C6CCC6)CC5)cccn4n3)cc2)CC1` [Example 2-282, 4-[[8-[1-(cyclobutanecarbonyl)-3,6-dihydro-2H-pyridin-4-yl]-[1,2,4]triazolo[1,5-a]pyridin-2-yl]amino]-N-methyl-N-(1-methyl-4-piperidyl)benzamide], the pIC50 was 7.33.
